Reference: PMC5296754
Results are given in words; binding and its absence hold for the method and conditions named. Some binding calls cover weakened binding; strength is not graded here.

Amino acid sequences for entries named in this document (tags omitted). A change or cut given only in a name is not applied to a line headed by its entry.
UniProt P13128, whole entry, looked up, stated change not applied: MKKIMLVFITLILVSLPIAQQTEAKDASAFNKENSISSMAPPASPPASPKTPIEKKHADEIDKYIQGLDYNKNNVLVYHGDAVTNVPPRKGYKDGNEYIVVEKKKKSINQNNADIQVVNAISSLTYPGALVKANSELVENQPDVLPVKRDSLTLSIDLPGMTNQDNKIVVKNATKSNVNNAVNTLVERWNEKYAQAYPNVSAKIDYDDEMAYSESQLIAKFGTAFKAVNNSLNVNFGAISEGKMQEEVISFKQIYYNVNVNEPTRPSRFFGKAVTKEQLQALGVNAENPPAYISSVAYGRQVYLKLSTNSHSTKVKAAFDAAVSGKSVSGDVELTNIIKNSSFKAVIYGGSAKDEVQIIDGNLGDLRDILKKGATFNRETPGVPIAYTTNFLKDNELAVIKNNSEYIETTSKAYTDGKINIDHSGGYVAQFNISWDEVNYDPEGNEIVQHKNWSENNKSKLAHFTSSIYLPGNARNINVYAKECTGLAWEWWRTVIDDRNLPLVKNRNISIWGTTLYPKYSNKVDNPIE

Experiments:
[1] = target: Listeriolysin O Y406A mutant (Listeria monocytogenes) (UniProt P13128); assay: transmission electron microscopy (negative stain); 500 nM protein with POPC:Chol multilamellar vesicles (10 mM lipids), 10 mM MES, 150 mM NaCl, pH 5.5, room temperature; contrasted with 1% uranyl acetate; oligomers on the membrane; both purified
[2] = target: Listeriolysin O Y406A mutant (Listeria monocytogenes) (UniProt P13128); assay: high-speed atomic force microscopy; 500 nM protein added to POPC:Chol 1:1 supported lipid bilayer on mica; 20 mM MES, pH 5.6, 100 mM NaCl, 5 mM MgCl2, room temperature; oligomers on the membrane; both purified

Listeriolysin O Y406A mutant (from UniProt P13128 39-526)
binding [1]: binds
binding [2]: binds
